Reference: PubChem BioAssay AID248 (DTP/NCI, 2004)
The list shows only some results of the screen, not a fair sample: it is rich in T/C values a quarter to a half above the control, in often repeated tests (any T/C) and in doses without a T/C. Further doses and runs are listed elsewhere. T/C is the treated group as % of the vehicle group. Some entries give survivors of the animals treated and no T/C: the source holds a T/C of zero for them, seemingly a mark for toxic or unscored doses. Some survivor counts are full or nearly so, which does not show that the dose was tolerated: the source hardly ever lists a survival T/C far under the control, and the zero likely stands for such cases as well. Survivors were counted at the toxicity check, usually on the fifth day, unless a day is given; later deaths do not show. Schedules are NCI's codes, read here as Q, the interval in days (D) or hours (H), X, the number of doses. Some schedules carry Z or #; the key to these is not given. Some entries were tested several times; the values are given in rising order. For survival time, this PubChem deposit counts one and a half times the control or more as active, and values a quarter to a half above the control carry no call in these data; other NCI protocols may use other cut-offs. Some T/C values are followed by the survivors on the day toxicity was checked, most often the fifth; without a count, all were alive then.

Tested on: L1210 leukemia ip in BDF1 mice, survival T/C
Assay: NCI In Vivo Anticancer Drug Screen. Data for tumor model L1210 Leukemia (intraperitoneal) in B6D2F1 (BDF1) mice
Details: T/C endpoint: mean survival time, higher T/C = longer survival
[1] = dose: 100.0 mg/kg/injection, schedule: Q04DX003 (ip), vehicle: saline with Tween-80
[2] = dose: 200.0 mg/kg/injection, schedule: Q04DX003 (ip), vehicle: saline with Tween-80
[3] = dose: 400.0 mg/kg/injection, schedule: Q04DX003 (ip), vehicle: saline with Tween-80
[4] = dose: 200.0 mg/kg/injection, schedule: Q01DX009 (ip), vehicle: Klucel (hydroxypropylcellulose) (HPC)
[5] = dose: 400.0 mg/kg/injection, schedule: Q01DX009 (ip), vehicle: Klucel (hydroxypropylcellulose) (HPC)
[6] = dose: 400.0 mg/kg/injection, schedule: Q01DX009 (ip), vehicle: saline

SMILES: NC(N)=N/N=C/c1ccc(O)c(S(=O)(=O)O)c1
- survivor count (dose: 240.0 mg/kg/injection, schedule: Q01DX Z (ip), vehicle: saline): 6 of 6

SMILES: CCCCC(=O)NC1=CC(=O)c2ccccc2C1=O
- survivor count (dose: 300.0 mg/kg/injection, schedule: Q01DX001 (ip), vehicle: saline): 2 of 6

SMILES: CC(=O)Nc1cc2c3ccccc3ccc2c2ccccc12
- survivor count (dose: 200.0 mg/kg/injection, schedule: Q01DX001 (ip), vehicle: carboxymethylcellulose (CMC)): 6 of 6
- survivor count (dose: 400.0 mg/kg/injection, schedule: Q01DX001 (ip), vehicle: carboxymethylcellulose (CMC)): 6 of 6

SMILES: CC(=O)OCC(=O)c1cc(OC(C)=O)c(OC(C)=O)c(OC(C)=O)c1
- survivor count (dose: 200.0 mg/kg/injection, schedule: Q01DX001 (ip), vehicle: saline): 2 of 4

SMILES: Cc1nc2ccccc2nc1CI
- survivor count (dose: 25.0 mg/kg/injection, schedule: Q04DX003 (ip), vehicle: acetone): 5 of 6
- survivor count (dose: 28.0 mg/kg/injection, schedule: Q01DX009 (ip), vehicle: saline with Tween-80): 2 of 6
- survivor count (dose: 40.0 mg/kg/injection, schedule: Q01DX009 (ip), vehicle: saline with Tween-80): 3 of 6
- survivor count (dose: 50.0 mg/kg/injection, schedule: Q04DX003 (ip), vehicle: acetone): 3 of 6
- survivor count [1]: 2 of 6
- survivor count [2]: 0 of 6
- survivor count [3]: 0 of 6

SMILES: C=CCNc1ccc([N+](=O)[O-])cc1[N+](=O)[O-]
- survivor count (dose: 400.0 mg/kg/injection, schedule: Q01DX001 (ip), vehicle: steroid suspending solution): 3 of 6

SMILES: COC(=O)c1ccc(OC(=O)Nc2ccc([N+](=O)[O-])cc2OC)cc1
- survivor count [4]: 5 of 6
- survivor count [5]: 2 of 6

SMILES: CCCCCCCc1c(C)[nH]c2ccccc2c1=O
- survivor count [4]: 6 of 6
- survivor count [5]: 1 of 6

SMILES: CC1(C)c2ccccc2C(C)(C)[N+]1(C)C
- survivor count (dose: 200.0 mg/kg/injection, schedule: Q01DX001 (ip), vehicle: other): 3 of 6
- survivor count (dose: 400.0 mg/kg/injection, schedule: Q01DX001 (ip), vehicle: other): 0 of 6

SMILES: O=C(/C(=C\Cl)CBr)c1ccccc1
- survivor count [1]: 4 of 6
- survivor count [2]: 2 of 6
- survivor count [3]: 0 of 6

SMILES: CC(C)(C)CNC(=S)Nc1ccccc1
- survivor count (dose: 150.0 mg/kg/injection, schedule: Q01DX001 (ip), vehicle: other): 1 of 6
- survivor count (dose: 300.0 mg/kg/injection, schedule: Q01DX001 (ip), vehicle: other): 0 of 6

SMILES: CC(=O)NC1CCC(/C=C(\C#N)C2CCC([N+](=O)[O-])CC2)CC1 (centres undefined)
- survivor count (dose: 100.0 mg/kg/injection, schedule: Q04DX002 (ip), vehicle: saline with Tween-80): 3 of 3

SMILES: CC(=O)N(CCCc1ccccc1)C(C)(C)C
- survivor count (dose: 200.0 mg/kg/injection, schedule: Q01DX009 (ip), vehicle: saline): 0 of 6
- survivor count (dose: 400.0 mg/kg/injection, schedule: Q01DX001 (ip), vehicle: saline): 0 of 6

SMILES: ClCCN(CC1C(c2ccccc2)C1c1ccccc1)C1CCCCC1 (centres undefined)
- survivor count (dose: 25.0 mg/kg/injection, schedule: Q04DX002 (ip), vehicle: Klucel (hydroxypropylcellulose) (HPC)): 3 of 3
- survivor count (dose: 50.0 mg/kg/injection, schedule: Q04DX002 (ip), vehicle: Klucel (hydroxypropylcellulose) (HPC)): 2 of 3
- survivor count (dose: 100.0 mg/kg/injection, schedule: Q04DX002 (ip), vehicle: Klucel (hydroxypropylcellulose) (HPC)): 0 of 3

SMILES: FC1(F)SC2CCCC2C1(F)F (centres undefined)
- survivor count (dose: 25.0 mg/kg/injection, schedule: Q01DX009 (ip), vehicle: saline with Tween-80): 0 of 6
- survivor count (dose: 50.0 mg/kg/injection, schedule: Q01DX009 (ip), vehicle: saline with Tween-80): 0 of 6
- survivor count [1]: 6 of 6
- survivor count [2]: 0 of 6
- survivor count [3]: 0 of 6

SMILES: CSc1cc(C(=O)Nc2ccc(C3=NCCN3)cc2)ccc1C(=O)Nc1ccc(C2=NCCN2)cc1
- T/C (dose: 1.0 mg/kg/injection, schedule: Q01DX Z (ip), vehicle: carboxymethylcellulose (CMC)): 128 % of control
- T/C (dose: 2.0 mg/kg/injection, schedule: Q01DX Z (ip), vehicle: carboxymethylcellulose (CMC)): 140 % of control
- T/C (dose: 2.5 mg/kg/injection, schedule: Q01DX015 (ip), vehicle: methylcellulose (MC)): 131 % of control
- T/C (dose: 4.0 mg/kg/injection, schedule: Q01DX Z (ip), vehicle: carboxymethylcellulose (CMC)): 149 % of control
- T/C (dose: 5.0 mg/kg/injection, schedule: Q01DX015 (ip), vehicle: methylcellulose (MC)): 133 % of control
- T/C (dose: 25.0 mg/kg/injection, schedule: Q01DX001 (ip), vehicle: methylcellulose (MC)): 139 % of control
- T/C (dose: 50.0 mg/kg/injection, schedule: Q01DX001 (ip), vehicle: methylcellulose (MC)): 120, 128, 130, 168 % of control
- survivor count (dose: 80.0 mg/kg/injection, schedule: Q01DX015 (ip), vehicle: methylcellulose (MC)): 5 of 6
- survivor count (dose: 80.0 mg/kg/injection, schedule: Q01DX Z (ip), vehicle: carboxymethylcellulose (CMC)): 6 of 6
- T/C (dose: 100.0 mg/kg/injection, schedule: Q01DX001 (ip), vehicle: methylcellulose (MC)): 144, 145, 151 [8 of 10 alive], 166 % of control [4 of 5 alive]
- survivor count (dose: 150.0 mg/kg/injection, schedule: Q01DX001 (ip), vehicle: methylcellulose (MC)): 0 of 10 and 2 of 9
- survivor count (dose: 200.0 mg/kg/injection, schedule: Q01DX001 (ip), vehicle: methylcellulose (MC)): 0 of 6

SMILES: Cn1c(C=O)cc2ccccc21
- survivor count [6]: 3 of 3

SMILES: CCSc1ncnc2c1nnn2C1OC(CO)C(O)C1O (centres undefined)
- survivor count (dose: 400.0 mg/kg/injection, schedule: Q01DX001 (ip), vehicle: saline with Tween-80): 0 of 6

SMILES: O=C1C=C(Nc2ccc(O)cc2)c2ccccc2C1=O
- survivor count (dose: 50.0 mg/kg/injection, schedule: Q01DX009 (ip), vehicle: saline): 4 of 6
- survivor count (dose: 100.0 mg/kg/injection, schedule: Q01DX009 (ip), vehicle: saline): 1 of 6
- survivor count (dose: 200.0 mg/kg/injection, schedule: Q04DX003 (ip), vehicle: saline): 6 of 6

SMILES: Clc1ccc(-c2cc(=[N+]3CCC4(CC3)SSC3(CC[N+](=c5cc(-c6ccc(Cl)cc6)ss5)CC3)S4)ss2)cc1 (centres undefined)
- survivor count (dose: 200.0 mg/kg/injection, schedule: Q01DX009 (ip), vehicle: water): 6 of 6

SMILES: ONc1nc(NO)c2[nH]cnc2n1
- T/C (dose: 0.5 mg/kg/injection, schedule: Q01DX009 (ip), vehicle: other): 131 % of control
- T/C (dose: 0.93 mg/kg/injection, schedule: Q01DX009 (ip), vehicle: carboxymethylcellulose (CMC)): 139 % of control
- T/C (dose: 1.0 mg/kg/injection, schedule: Q01DX009 (ip), vehicle: other): 128 % of control
- T/C (dose: 1.25 mg/kg/injection, schedule: Q01DX009 (ip), vehicle: other): 140 % of control
- T/C (dose: 1.85 mg/kg/injection, schedule: Q01DX009 (ip), vehicle: carboxymethylcellulose (CMC)): 147 % of control
- T/C (dose: 2.5 mg/kg/injection, schedule: Q01DX009 (ip), vehicle: carboxymethylcellulose (CMC)): 134 % of control [5 of 6 alive]
- T/C (dose: 3.7 mg/kg/injection, schedule: Q01DX009 (ip), vehicle: carboxymethylcellulose (CMC)): 143 % of control
- T/C (dose: 5.0 mg/kg/injection, schedule: Q01DX009 (ip), vehicle: carboxymethylcellulose (CMC)): 128 % of control
- T/C (dose: 7.5 mg/kg/injection, schedule: Q01DX009 (ip), vehicle: carboxymethylcellulose (CMC)): 147 % of control
- T/C (dose: 15.0 mg/kg/injection, schedule: Q01DX009 (ip), vehicle: carboxymethylcellulose (CMC)): 149 % of control
- T/C (dose: 37.5 mg/kg/injection, schedule: Q01DX009 (oral), vehicle: carboxymethylcellulose (CMC)): 125 % of control
- T/C (dose: 50.0 mg/kg/injection, schedule: Q01DX009 (ip), vehicle: other): 128 % of control
- T/C (dose: 120.0 mg/kg/injection, schedule: Q01DX009 (ip), vehicle: carboxymethylcellulose (CMC)): 143 % of control
- T/C (dose: 150.0 mg/kg/injection, schedule: Q01DX009 (oral), vehicle: carboxymethylcellulose (CMC)): 132 % of control

SMILES: CCOC(=O)/C=C/SCCCC(=O)O
- survivor count (dose: 400.0 mg/kg/injection, schedule: Q01DX009 (ip), vehicle: saline with Tween-80): 3 of 6

SMILES: CCCCCC(C1=NC(C)(C)CC(C)O1)c1ccccc1 (centres undefined)
- survivor count [6]: 6 of 6
